Assay results from paper PMC6633205, “Cus2 enforces the first ATP-dependent step of splicing by binding to yeast SF3b1 through a UHM–ULM interaction” (RNA, 2019).
Results are given in words; binding and its absence hold for the method and conditions named.

Chains of the proteins cited; added tags and fusions are not shown. Lines headed by an entry give the natural chain unless they say otherwise; changes in a name come on top.
UniProt P53830: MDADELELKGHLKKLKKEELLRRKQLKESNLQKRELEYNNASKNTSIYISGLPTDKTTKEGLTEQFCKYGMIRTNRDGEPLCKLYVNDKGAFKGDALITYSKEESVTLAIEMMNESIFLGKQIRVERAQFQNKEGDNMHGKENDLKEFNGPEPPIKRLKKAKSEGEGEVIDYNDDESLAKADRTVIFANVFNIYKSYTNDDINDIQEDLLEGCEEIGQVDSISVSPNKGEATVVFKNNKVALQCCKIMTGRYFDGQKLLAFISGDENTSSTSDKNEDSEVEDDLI
UniProt P49955: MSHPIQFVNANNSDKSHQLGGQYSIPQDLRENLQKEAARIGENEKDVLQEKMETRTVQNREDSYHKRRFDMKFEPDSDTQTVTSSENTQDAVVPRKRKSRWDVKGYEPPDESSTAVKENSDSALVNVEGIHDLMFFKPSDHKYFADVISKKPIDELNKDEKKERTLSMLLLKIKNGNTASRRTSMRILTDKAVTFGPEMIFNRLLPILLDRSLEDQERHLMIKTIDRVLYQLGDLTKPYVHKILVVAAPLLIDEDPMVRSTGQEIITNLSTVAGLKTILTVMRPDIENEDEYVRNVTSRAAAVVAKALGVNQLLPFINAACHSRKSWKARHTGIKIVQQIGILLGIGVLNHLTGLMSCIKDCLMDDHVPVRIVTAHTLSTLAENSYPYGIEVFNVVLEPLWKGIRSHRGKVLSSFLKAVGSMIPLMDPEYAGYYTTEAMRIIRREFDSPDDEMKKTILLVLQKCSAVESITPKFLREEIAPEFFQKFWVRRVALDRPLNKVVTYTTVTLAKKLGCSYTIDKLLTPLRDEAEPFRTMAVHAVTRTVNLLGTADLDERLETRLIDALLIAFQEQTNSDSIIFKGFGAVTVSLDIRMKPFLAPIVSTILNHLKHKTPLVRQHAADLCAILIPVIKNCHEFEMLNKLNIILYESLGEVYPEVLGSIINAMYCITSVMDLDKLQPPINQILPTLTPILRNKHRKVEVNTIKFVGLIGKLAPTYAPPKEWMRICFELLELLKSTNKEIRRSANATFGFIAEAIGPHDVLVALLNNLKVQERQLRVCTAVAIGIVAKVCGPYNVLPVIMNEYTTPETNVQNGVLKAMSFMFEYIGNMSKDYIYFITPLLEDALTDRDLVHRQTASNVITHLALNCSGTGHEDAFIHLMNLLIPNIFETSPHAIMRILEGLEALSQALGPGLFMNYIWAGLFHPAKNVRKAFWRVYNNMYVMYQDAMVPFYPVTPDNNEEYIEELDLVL

How the values were obtained:
[1] = target: Cus2 F235A (F253 in the legends) fused to the GAL4 DNA-binding domain (S. cerevisiae) (UniProt P53830); assay: two-hybrid; Cus2 proteins fused to the GAL4 DNA-binding domain (pAS2) against Hsh155 fused to the GAL4 activation domain (pACT) in yeast strain y190; GAL/UAS-HIS3 reporter, growth on SCD -Leu -Trp -His with 25 mM 3-AT
[2] = target: Cus2 D204K fused to the GAL4 DNA-binding domain (S. cerevisiae) (UniProt P53830); assay: as above

Substance: Hsh155, full length, wild type, fused to the GAL4 activation domain (from UniProt P49955 1-971)
- binding [1]: no binding
- binding [2]: no binding
